Data reported in article PMC12339391.
No constants are given. Whether binding was seen depends on the method and setting. In cells and extracts the contact can be indirect. A yes stands for co-enrichment or nearness to the bait. Other partners may have been found. Sequences can lack the tags named with a protein. One block for each binder: values may come before it.

Biological target: T1, Pex18-TPA (S. cerevisiae Pex18 fused C terminally with the TEV protease cleavage site and protein A tag) (S. cerevisiae) (UniProt P38855)
T1 sequence: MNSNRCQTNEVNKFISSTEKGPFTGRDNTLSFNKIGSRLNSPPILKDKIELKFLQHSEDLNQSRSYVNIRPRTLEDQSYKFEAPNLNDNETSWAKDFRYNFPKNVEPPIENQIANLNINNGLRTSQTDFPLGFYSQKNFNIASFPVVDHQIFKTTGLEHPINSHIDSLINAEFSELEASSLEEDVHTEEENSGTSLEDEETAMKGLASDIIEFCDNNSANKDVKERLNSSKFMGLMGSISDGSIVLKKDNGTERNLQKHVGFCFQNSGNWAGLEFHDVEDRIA
Assay: affinity purification with mass spectrometry; Pex18-TPA (protein A tag) as bait; native complexes from soluble fractions of yeast grown in oleic acid medium, eluted with TEV protease; control: untagged wild type; label-free quantification, n = 3

binding: binds
B1: Pex7 (S. cerevisiae) (protein, UniProt P39108 1-375)
chain: MLRYHMQGFSGYGVQYSPFFDNRLAVAAGSNFGLVGNGKLFILEIDRSGRIVEVNSFLTQDCLFDLAWNESHENQVLVAQGDGTLRLFDTTFKEFPIAIFKEHEREVFSCNWNLVNRQNFLSSSWDGSIKIWSPLRKQSLMTLTPRPLEITKMVDPLNAIILKKKSFTGISKNRNCVYQAQFSPHDQNLVLSCSGNSYASLFDIRLPSGKNQNNFLVHSGLEALTCDFNKYRPYVVATGGVDNAIRIWDIRMLNKNESATIKRTVPGQLHNSSCINEIPNAHGLAIRKVTWSPHHSNILMSASYDMTCRIWRDLSNDGAKETYKTNSTDATKGSIFNFTQHSEFVFGADWSLWGKPGYVASTAWDGNLFVWNGLG

binding: binds
B2: ScPex39 (S. cerevisiae Yjr012c) (protein, UniProt P47087 1-132)
chain: MAAGGELSYEELLDHILNNKPIPNIVEVPNVTLDEGLASTPSLRPRPRPWEGQLQHQSHQGSLDKPNISLDIDQESLEGMTSLTRLSECYDIQSKLQINDSDNDNDDNNNDNNKGDGNDDDNNTVTANPTAR
